According to US20100048457A1, “GLYCOPROTEIN FOR TREATING CHRONIC OBSTRUCTIVE PULMONARY DISEASES” (Guangzhou Konzern Pharmacetuical Co. Ltd, priority 2007, published 2010):
At least one compound was matched to its structure with a doubt left.

Test system: Staphyloccocus aureus Rosenbach
Assay: Treatment of infection by Staphyloccocus aureus Rosenbach in vivo
Conditions: Ofloxacin group
Excerpt: 2.10.1 select some bacterial related to acute pharyngitis, such as Staphyloccocus aureus Rosenbach, and α-hemolytic streptococcus, inject above bacterial into animals, such as mouse, by intraperitoneal dosing or subcutaneous injection, which will make certain animal death. Dosed before infecting the bacterial, and dosed after infecting the bacterial, the animals will be observed for eating, drinking, and movement.
Observe and record the eating, drinking, and movement in 4 days as the normal value. Besides of control group, animals in other groups are injected 0.5 ml Staphyloccocus aureus Rosenbach by intraperitoneal dosing or subcutaneous injection In the next day, animals are feed 5 days by gavage, twice every day. Observe the condition of eating, drinking, and movement, and mean growth rates, and then compare with control group.

Compound: CC1COc2c(N3CCN(C)CC3)c(F)cc3c(=O)c(C(=O)O)cn1c23 (stereo not shown) [Ofloxacin]
- After infection movement: 3 days, no cyst and node formation and Activity reduced slightly, normal in dosing
